One sequence from publication PMC6468243, “Mechanistic characterization of the DEAD-box RNA helicase Ded1 from yeast as revealed by a novel technique using single-molecule magnetic tweezers” can be followed below.

By UniProt entry, the sequences of proteins in these tests, tags left out. Where a name states a change or a piece, a line headed by the entry shows the natural chain unless it says otherwise.
UniProt P06634: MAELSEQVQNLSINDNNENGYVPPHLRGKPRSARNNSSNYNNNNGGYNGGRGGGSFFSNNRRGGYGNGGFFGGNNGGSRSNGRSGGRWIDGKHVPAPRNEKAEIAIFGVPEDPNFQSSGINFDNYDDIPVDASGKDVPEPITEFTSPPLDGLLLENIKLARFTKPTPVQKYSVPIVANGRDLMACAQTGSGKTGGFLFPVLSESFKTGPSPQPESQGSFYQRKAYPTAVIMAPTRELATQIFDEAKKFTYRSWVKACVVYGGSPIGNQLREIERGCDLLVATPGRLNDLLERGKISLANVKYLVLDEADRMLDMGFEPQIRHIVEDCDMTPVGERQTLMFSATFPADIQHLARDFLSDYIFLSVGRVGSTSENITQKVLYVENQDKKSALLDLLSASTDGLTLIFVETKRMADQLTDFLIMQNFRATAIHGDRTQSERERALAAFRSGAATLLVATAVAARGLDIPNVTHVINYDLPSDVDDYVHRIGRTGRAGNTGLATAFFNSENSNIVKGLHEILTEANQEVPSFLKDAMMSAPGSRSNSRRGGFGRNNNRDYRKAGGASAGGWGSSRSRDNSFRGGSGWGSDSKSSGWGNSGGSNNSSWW

In the data set the target is Ded1-His6 (UniProt P06634). Nature of the data set: competition (magnetic tweezers displacement assay). As to conditions: 1 mM ATP, 10 nM Ded1, against 200 nM 5'ss-11 bp RNA, relatively poor competitor, much higher concentrations needed, Fhold 7 pN, 10 nM Ded1, 1 mM ATP, recombinant protein, protein details: His6 (pET22b).

For at least one entry, the source does not settle the construct or the ends of the probe. Weaker means in comparison with the reference protein, sequence or condition of that experiment.

Turning to “UCAUACUUUUCUUUUCUUUUCCAUC / GAUGGAAAAGAAAAGAAAAGUAUGA [dsRNA (RNA01/RNA02)]”, the binding result was “binds more weakly”.
